In PubChem BioAssay AID328 (DTP/NCI, 2004):
The list is a part of this screen's results and no random one: its compounds were picked by chemical class. Other doses and runs of a compound may be missing. T/C is the treated group as % of the vehicle group. Where survival is the endpoint, this PubChem deposit counts one and a half times the control or more as active, and values a quarter to a half above the control carry no call in these data; other NCI protocols may use other cut-offs. Some T/C values are marked as having no survivor count here; that says nothing about deaths at the dose. Schedules are NCI's codes, read here as Q, the interval in days (D) or hours (H), X, the number of doses. Some entries were tested several times; the results are listed from low to high.

Test system: BDF1 mice, P388 leukemia ip, median survival T/C
Assay: NCI In Vivo Anticancer Drug Screen. Data for tumor model P388 Leukemia (intraperitoneal) in B6D2F1 (BDF1) mice
Conditions: T/C endpoint: median survival time, higher T/C = longer survival
Method in brief: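 Mice carrying the transplantable tumour receive compound or vehicle. Survival is followed in each arm, and the treated measure is divided by the vehicle measure.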

OCC#CCN(CCBr)CCBr
T/C (dose: 0.39 mg/kg/injection, schedule: Q01DX009 (ip), vehicle: saline with Tween-80): 163 % of control [survivor count not shown] | T/C (dose: 0.78 mg/kg/injection, schedule: Q01DX009 (ip), vehicle: saline with Tween-80): 199 % of control [survivor count not shown] | T/C (dose: 1.56 mg/kg/injection, schedule: Q01DX009 (ip), vehicle: saline with Tween-80): 192 [survivor count not shown] and 265 % of control [survivor count not shown] | T/C (dose: 3.13 mg/kg/injection, schedule: Q01DX009 (ip), vehicle: saline with Tween-80): 92 % of control [survivor count not shown]

O=C(O)C(=O)Cc1ccc(N(CCCl)CCCl)cc1
T/C (dose: 33.0 mg/kg/injection, schedule: Q04DX003 (ip), vehicle: saline with Tween-80): 168 [survivor count not shown] and 183 % of control [survivor count not shown] | T/C (dose: 50.0 mg/kg/injection, schedule: Q04DX003 (ip), vehicle: saline with Tween-80): 183 [survivor count not shown] and 204 % of control [survivor count not shown] | T/C (dose: 75.0 mg/kg/injection, schedule: Q04DX003 (ip), vehicle: saline with Tween-80): 177 [survivor count not shown] and 204 % of control [survivor count not shown] | T/C (dose: 100.0 mg/kg/injection, schedule: Q04DX003 (ip), vehicle: saline with Tween-80): 200 % of control [survivor count not shown] | T/C (dose: 200.0 mg/kg/injection, schedule: Q04DX003 (ip), vehicle: saline with Tween-80): 272 % of control [survivor count not shown]

Cc1ccc(S(=O)(=O)CN(CCBr)CCBr)cc1
T/C (dose: 12.5 mg/kg/injection, schedule: Q01DX009 (ip), vehicle: saline with Tween-80): 108 [survivor count not shown] and 178 % of control [survivor count not shown] | T/C (dose: 25.0 mg/kg/injection, schedule: Q01DX009 (ip), vehicle: saline with Tween-80): 161 % of control [survivor count not shown] | T/C (dose: 50.0 mg/kg/injection, schedule: Q01DX009 (ip), vehicle: saline with Tween-80): 205 [survivor count not shown] and 218 % of control [survivor count not shown]

COc1cc(CN(CCCl)CCBr)cc(OC)c1
T/C (dose: 0.45 mg/kg/injection, schedule: Q04DX003 (ip), vehicle: saline): 116 % of control [survivor count not shown] | T/C (dose: 0.7 mg/kg/injection, schedule: Q04DX003 (ip), vehicle: saline): 133 % of control [survivor count not shown] | T/C (dose: 0.75 mg/kg/injection, schedule: Q01DX009 (ip), vehicle: saline with Tween-80): 162 % of control [survivor count not shown] | T/C (dose: 1.1 mg/kg/injection, schedule: Q04DX003 (ip), vehicle: saline with Tween-80): 141 % of control [survivor count not shown] | T/C (dose: 1.1 mg/kg/injection, schedule: Q04DX003 (ip), vehicle: saline): 141 % of control [survivor count not shown] | T/C (dose: 1.5 mg/kg/injection, schedule: Q01DX009 (ip), vehicle: saline with Tween-80): 162 % of control [survivor count not shown] | T/C (dose: 1.7 mg/kg/injection, schedule: Q04DX003 (ip), vehicle: saline with Tween-80): 150 % of control [survivor count not shown] | T/C (dose: 2.6 mg/kg/injection, schedule: Q01DX009 (ip), vehicle: Klucel (hydroxypropylcellulose) (HPC)): 137 % of control [survivor count not shown] | T/C (dose: 2.6 mg/kg/injection, schedule: Q04DX003 (ip), vehicle: saline with Tween-80): 110 [survivor count not shown], 154 [survivor count not shown], 156 % of control [survivor count not shown] | T/C (dose: 3.0 mg/kg/injection, schedule: Q01DX009 (ip), vehicle: saline with Tween-80): 169 % of control [survivor count not shown] | T/C (dose: 4.0 mg/kg/injection, schedule: Q01DX009 (ip), vehicle: Klucel (hydroxypropylcellulose) (HPC)): 137 % of control [survivor count not shown] | T/C (dose: 4.0 mg/kg/injection, schedule: Q04DX003 (ip), vehicle: saline with Tween-80): 137 [survivor count not shown] and 152 % of control [survivor count not shown] | T/C (dose: 6.0 mg/kg/injection, schedule: Q01DX009 (ip), vehicle: Klucel (hydroxypropylcellulose) (HPC)): 161 % of control [survivor count not shown] | T/C (dose: 6.0 mg/kg/injection, schedule: Q04DX003 (ip), vehicle: saline with Tween-80): 135 [survivor count not shown], 165 [survivor count not shown], 191 % of control [survivor count not shown] | T/C (dose: 9.0 mg/kg/injection, schedule: Q01DX009 (ip), vehicle: Klucel (hydroxypropylcellulose) (HPC)): 163 % of control [survivor count not shown] | T/C (dose: 9.0 mg/kg/injection, schedule: Q04DX003 (ip), vehicle: saline with Tween-80): 155 [survivor count not shown] and 221 % of control [survivor count not shown] | T/C (dose: 12.0 mg/kg/injection, schedule: Q04DX003 (ip), vehicle: saline with Tween-80): 91 % of control [survivor count not shown] | T/C (dose: 14.0 mg/kg/injection, schedule: Q01DX009 (ip), vehicle: Klucel (hydroxypropylcellulose) (HPC)): 189 % of control [survivor count not shown]

ClCCN(CCCl)Cc1ccc(Cl)cc1
T/C (dose: 0.29 mg/kg/injection, schedule: Q01DX009 (ip), vehicle: saline): 113 % of control [survivor count not shown] | T/C (dose: 0.44 mg/kg/injection, schedule: Q01DX009 (ip), vehicle: saline): 127 % of control [survivor count not shown] | T/C (dose: 0.68 mg/kg/injection, schedule: Q01DX009 (ip), vehicle: saline): 127 % of control [survivor count not shown] | T/C (dose: 1.0 mg/kg/injection, schedule: Q01DX009 (ip), vehicle: saline): 136 % of control [survivor count not shown] | T/C (dose: 1.3 mg/kg/injection, schedule: Q04DX003 (ip), vehicle: saline): 104 % of control [survivor count not shown] | T/C (dose: 1.56 mg/kg/injection, schedule: Q01DX009 (ip), vehicle: saline): 159 % of control [survivor count not shown] | T/C (dose: 2.0 mg/kg/injection, schedule: Q04DX003 (ip), vehicle: saline): 104 % of control [survivor count not shown] | T/C (dose: 3.1 mg/kg/injection, schedule: Q04DX003 (ip), vehicle: saline): 130 % of control [survivor count not shown] | T/C (dose: 3.12 mg/kg/injection, schedule: Q01DX009 (ip), vehicle: saline): 150 % of control [survivor count not shown] | T/C (dose: 4.1 mg/kg/injection, schedule: Q01DX009 (ip), vehicle: saline): 150 [survivor count not shown] and 170 % of control [survivor count not shown] | T/C (dose: 4.7 mg/kg/injection, schedule: Q04DX003 (ip), vehicle: saline): 135 % of control [survivor count not shown] | T/C (dose: 6.25 mg/kg/injection, schedule: Q01DX009 (ip), vehicle: saline): 150 [survivor count not shown], 168 [survivor count not shown], 190 % of control [survivor count not shown] | T/C (dose: 7.2 mg/kg/injection, schedule: Q04DX003 (ip), vehicle: saline): 141 % of control [survivor count not shown] | T/C (dose: 9.3 mg/kg/injection, schedule: Q01DX009 (ip), vehicle: saline): 130 [survivor count not shown] and 181 % of control [survivor count not shown] | T/C (dose: 10.0 mg/kg/injection, schedule: Q04DX003 (ip), vehicle: saline): 158 % of control [survivor count not shown] | T/C (dose: 12.5 mg/kg/injection, schedule: Q01DX009 (ip), vehicle: saline): 107 % of control [survivor count not shown] | T/C (dose: 16.5 mg/kg/injection, schedule: Q04DX003 (ip), vehicle: saline): 160 [survivor count not shown] and 227 % of control [survivor count not shown] | T/C (dose: 25.0 mg/kg/injection, schedule: Q04DX003 (ip), vehicle: saline): 190 [survivor count not shown] and 238 % of control [survivor count not shown] | T/C (dose: 37.5 mg/kg/injection, schedule: Q04DX003 (ip), vehicle: saline): 122 [survivor count not shown] and 185 % of control [survivor count not shown]
